Where two headings read alike, the source gives them in different places. Results are given in words; binding and its absence hold for the method and conditions named. Binding seen in cells or lysates may run through a third protein. These calls come from enrichment with a bait or labelling near it, and not all partners need be listed.

Amino acid sequences for entries named in this document (tags omitted). Residues count along the entry.
UniProt Q12864, residues 23-832: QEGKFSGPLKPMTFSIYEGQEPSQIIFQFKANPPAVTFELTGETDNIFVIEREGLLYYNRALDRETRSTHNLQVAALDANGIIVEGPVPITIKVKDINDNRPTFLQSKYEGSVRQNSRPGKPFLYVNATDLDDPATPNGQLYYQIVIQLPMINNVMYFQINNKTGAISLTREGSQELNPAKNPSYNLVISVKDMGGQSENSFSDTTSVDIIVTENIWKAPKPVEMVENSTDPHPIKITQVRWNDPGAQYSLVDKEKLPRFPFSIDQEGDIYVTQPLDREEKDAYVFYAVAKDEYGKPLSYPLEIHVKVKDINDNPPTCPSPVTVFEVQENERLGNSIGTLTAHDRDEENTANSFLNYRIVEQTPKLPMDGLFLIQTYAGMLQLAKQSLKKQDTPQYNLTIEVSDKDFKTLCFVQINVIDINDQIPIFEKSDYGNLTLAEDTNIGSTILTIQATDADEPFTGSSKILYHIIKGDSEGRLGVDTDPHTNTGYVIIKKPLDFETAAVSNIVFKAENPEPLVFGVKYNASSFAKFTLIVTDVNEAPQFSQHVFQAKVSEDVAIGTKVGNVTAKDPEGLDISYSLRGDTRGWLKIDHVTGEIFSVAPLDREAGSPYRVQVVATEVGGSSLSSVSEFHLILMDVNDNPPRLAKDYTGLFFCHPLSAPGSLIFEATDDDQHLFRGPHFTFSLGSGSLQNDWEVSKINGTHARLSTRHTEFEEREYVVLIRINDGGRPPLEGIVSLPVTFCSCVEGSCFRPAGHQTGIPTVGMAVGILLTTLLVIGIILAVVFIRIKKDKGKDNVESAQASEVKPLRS
UniProt P60953: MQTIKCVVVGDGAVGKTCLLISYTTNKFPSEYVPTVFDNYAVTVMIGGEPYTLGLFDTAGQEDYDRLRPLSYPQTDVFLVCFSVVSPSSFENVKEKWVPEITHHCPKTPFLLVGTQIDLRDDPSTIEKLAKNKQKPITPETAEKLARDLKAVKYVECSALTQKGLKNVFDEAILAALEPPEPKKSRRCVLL
UniProt P46940: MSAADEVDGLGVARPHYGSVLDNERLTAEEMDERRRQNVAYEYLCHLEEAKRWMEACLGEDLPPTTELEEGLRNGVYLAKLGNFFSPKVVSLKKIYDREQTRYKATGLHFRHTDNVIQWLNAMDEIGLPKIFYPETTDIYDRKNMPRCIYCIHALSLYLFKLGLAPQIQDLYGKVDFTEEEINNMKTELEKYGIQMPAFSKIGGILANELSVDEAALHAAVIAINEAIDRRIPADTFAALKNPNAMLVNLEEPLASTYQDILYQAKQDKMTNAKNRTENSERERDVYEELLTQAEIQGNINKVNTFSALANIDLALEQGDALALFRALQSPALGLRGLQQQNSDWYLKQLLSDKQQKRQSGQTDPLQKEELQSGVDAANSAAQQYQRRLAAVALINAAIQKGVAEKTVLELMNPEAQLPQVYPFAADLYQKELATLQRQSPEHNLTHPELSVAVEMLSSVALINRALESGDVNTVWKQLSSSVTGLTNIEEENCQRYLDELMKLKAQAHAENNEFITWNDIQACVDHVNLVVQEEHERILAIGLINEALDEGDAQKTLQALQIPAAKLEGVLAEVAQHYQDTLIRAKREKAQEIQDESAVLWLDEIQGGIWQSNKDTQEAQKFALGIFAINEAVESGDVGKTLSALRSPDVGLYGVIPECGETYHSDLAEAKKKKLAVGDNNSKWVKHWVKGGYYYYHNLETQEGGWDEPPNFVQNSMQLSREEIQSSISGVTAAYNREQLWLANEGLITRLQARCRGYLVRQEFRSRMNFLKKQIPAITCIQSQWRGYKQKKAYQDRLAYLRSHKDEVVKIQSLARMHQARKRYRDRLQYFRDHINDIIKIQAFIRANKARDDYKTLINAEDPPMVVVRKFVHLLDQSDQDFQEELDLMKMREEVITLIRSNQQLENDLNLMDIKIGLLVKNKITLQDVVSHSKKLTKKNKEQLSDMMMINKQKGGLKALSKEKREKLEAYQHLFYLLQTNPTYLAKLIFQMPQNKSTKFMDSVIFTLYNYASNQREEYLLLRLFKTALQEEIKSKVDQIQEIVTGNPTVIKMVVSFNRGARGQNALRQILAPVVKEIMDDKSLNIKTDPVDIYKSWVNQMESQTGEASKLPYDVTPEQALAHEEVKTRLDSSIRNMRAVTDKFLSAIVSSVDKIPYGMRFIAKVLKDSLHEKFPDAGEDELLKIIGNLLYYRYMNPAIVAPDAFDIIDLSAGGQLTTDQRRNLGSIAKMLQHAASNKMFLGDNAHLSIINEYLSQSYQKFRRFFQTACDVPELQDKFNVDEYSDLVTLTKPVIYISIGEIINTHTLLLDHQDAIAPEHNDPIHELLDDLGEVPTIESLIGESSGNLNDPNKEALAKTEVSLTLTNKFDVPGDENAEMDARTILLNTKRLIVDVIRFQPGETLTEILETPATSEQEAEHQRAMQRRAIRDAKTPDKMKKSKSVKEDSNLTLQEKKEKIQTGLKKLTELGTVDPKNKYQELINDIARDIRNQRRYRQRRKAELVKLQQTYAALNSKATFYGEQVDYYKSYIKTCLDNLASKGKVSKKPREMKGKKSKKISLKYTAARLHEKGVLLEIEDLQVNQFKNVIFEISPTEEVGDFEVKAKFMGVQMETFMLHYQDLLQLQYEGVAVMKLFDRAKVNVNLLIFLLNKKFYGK
UniProt P35579: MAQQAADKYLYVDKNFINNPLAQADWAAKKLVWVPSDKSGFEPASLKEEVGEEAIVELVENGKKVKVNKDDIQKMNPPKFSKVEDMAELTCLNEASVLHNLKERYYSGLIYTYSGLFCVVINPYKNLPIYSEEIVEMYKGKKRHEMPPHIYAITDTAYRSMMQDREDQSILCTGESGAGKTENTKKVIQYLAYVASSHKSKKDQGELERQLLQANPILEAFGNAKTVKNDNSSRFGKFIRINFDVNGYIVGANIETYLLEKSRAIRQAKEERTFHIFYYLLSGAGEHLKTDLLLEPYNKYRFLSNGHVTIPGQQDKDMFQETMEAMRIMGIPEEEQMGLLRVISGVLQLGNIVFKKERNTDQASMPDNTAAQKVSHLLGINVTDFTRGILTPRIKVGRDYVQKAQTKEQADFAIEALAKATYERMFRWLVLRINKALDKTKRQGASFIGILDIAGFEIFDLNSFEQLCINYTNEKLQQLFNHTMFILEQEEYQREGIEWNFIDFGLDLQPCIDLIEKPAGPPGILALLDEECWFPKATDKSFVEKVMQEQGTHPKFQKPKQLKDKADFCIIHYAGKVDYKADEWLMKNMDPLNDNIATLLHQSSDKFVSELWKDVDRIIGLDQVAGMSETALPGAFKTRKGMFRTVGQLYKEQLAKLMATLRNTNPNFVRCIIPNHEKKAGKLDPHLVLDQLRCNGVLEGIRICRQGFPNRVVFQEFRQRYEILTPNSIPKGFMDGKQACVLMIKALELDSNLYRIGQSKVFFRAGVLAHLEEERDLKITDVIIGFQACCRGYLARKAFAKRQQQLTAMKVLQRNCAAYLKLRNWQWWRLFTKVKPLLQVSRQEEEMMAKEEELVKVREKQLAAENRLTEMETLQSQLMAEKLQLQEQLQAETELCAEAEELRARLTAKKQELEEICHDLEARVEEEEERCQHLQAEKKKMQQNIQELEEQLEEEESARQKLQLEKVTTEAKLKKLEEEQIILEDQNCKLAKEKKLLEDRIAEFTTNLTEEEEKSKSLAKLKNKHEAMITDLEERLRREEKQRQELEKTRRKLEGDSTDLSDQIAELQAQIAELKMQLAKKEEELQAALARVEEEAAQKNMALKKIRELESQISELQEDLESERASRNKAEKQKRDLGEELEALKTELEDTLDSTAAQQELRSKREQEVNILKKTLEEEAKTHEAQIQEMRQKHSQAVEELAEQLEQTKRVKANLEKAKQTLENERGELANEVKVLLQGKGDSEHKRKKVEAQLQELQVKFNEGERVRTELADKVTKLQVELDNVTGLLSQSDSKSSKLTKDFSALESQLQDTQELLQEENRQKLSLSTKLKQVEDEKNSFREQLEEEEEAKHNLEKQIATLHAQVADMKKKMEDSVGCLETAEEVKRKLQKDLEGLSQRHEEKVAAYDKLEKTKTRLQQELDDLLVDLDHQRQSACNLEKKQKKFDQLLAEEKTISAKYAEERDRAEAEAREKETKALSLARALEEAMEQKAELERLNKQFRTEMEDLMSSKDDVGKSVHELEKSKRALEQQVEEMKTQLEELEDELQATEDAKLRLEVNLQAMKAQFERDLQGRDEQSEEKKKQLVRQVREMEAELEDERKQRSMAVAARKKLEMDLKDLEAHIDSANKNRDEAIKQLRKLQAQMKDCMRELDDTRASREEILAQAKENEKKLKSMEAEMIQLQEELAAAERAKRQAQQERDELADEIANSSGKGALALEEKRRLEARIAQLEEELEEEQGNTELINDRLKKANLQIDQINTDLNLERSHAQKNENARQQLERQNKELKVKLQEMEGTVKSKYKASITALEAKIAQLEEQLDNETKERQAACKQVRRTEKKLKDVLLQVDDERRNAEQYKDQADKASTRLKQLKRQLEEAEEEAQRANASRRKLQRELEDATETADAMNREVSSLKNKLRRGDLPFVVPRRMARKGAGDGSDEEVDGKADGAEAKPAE
UniProt P07737: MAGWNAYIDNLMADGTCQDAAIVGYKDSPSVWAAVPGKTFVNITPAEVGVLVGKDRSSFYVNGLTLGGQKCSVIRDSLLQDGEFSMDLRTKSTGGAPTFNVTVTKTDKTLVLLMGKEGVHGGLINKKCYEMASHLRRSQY
UniProt Q9P258: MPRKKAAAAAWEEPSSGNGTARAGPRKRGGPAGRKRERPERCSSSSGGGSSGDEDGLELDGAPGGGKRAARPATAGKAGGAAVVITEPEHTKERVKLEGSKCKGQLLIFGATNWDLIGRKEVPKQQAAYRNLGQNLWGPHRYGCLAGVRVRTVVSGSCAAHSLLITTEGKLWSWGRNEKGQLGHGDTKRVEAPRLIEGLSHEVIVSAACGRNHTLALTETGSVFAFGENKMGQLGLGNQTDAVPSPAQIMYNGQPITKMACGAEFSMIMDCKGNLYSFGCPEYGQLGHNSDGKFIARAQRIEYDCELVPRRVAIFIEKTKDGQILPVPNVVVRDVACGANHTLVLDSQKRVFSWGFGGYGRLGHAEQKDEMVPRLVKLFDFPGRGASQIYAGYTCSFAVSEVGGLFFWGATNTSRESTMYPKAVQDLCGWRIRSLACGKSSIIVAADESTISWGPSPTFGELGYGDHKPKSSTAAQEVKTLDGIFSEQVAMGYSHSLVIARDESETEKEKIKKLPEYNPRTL
UniProt Q9BQE3: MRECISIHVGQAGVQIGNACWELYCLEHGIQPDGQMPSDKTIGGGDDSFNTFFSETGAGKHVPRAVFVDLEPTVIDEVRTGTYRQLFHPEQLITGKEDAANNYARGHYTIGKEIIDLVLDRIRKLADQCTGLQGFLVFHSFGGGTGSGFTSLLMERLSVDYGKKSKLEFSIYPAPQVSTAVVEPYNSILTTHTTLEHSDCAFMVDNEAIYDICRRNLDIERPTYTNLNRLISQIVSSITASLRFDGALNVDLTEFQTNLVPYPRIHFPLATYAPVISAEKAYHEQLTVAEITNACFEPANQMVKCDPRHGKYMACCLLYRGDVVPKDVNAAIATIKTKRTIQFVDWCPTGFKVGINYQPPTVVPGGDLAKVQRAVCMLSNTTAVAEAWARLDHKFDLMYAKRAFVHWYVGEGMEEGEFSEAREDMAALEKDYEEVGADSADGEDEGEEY
UniProt P68371: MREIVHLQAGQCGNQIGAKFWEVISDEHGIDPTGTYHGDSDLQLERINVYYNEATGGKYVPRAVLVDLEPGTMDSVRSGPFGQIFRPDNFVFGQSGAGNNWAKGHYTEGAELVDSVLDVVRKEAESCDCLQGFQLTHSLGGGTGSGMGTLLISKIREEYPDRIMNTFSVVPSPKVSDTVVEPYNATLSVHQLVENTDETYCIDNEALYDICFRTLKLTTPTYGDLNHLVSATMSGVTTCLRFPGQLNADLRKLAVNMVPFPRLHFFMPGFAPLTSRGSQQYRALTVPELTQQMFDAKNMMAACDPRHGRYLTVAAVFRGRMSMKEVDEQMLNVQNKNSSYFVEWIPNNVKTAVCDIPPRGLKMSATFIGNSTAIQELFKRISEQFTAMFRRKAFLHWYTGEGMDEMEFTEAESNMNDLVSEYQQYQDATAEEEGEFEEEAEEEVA

Experiment [1] concerns the target Cadherin-17 (CDH17), full-length, overexpressed (human) (UniProt Q12864). The experiment can be described thus: affinity purification with mass spectrometry; lysates of RKO and HT-29 cells transfected with CDH17 vectors, immunoprecipitated with anti-CDH17 or control antibody; in-gel trypsin digestion; positive when at least twice more unique peptides than the control IP.

Experiment [2] has the same target. Described as above. The source holds these as a separate data set.

With ACTN1 (from UniProt P12814 1-892), the binding result in experiment [1] was “binds”.
Take CDC42 (from UniProt P60953 1-191): the binding result in experiment [1] was “binds”.
The same measure, in the same setting: to IQGAP1 (from UniProt P46940 1-1657) belongs “binds”; to MYH9 (from UniProt P35579 1-1960), “binds”.
On the same count and under the same terms, the result for PFN1 (from UniProt P07737 1-140) reads “binds”.
Same read-out and setting: to RCC2 (from UniProt Q9P258 1-522) belongs “binds”.
For SPTAN1 (from UniProt Q13813 1-2472), the binding entry in experiment [1] is on record as “binds”.
The same measure, in the same setting: to TLN1 (from UniProt Q9Y490 1-2541) belongs “binds”; to TUBA1C (from UniProt Q9BQE3 1-449), “binds”.
The same measure, in the same setting: to TUBB2C (from UniProt P68371 1-445) belongs “binds”; to TUBB5 (from UniProt P07437 1-444), “binds”.

B1: desmocollin-1 (DSC1) (protein, UniProt Q08554 135-894)
chain: RWAPIPASLMENSLGPFPQHVQQIQSDAAQNYTIFYSISGPGVDKEPFNLFYIEKDTGDIFCTRSIDREKYEQFALYGYATTADGYAPEYPLPLIIKIEDDNDNAPYFEHRVTIFTVPENCRSGTSVGKVTATDLDEPDTLHTRLKYKILQQIPDHPKHFSIHPDTGVITTTTPFLDREKCDTYQLIMEVRDMGGQPFGLFNTGTITISLEDENDNPPSFTETSYVTEVEENRIDVEILRMKVQDQDLPNTPHSKAVYKILQGNENGNFIISTDPNTNEGVLCVVKPLNYEVNRQVILQVGVINEAQFSKAASSQTPTMCTTTVTVKIIDSDEGPECHPPVKVIQSQDGFPAGQELLGYKALDPEISSGEGLRYQKLGDEDNWFEINQHTGDLRTLKVLDRESKFVKNNQYNISVVAVDAVGRSCTGTLVVHLDDYNDHAPQIDKEVTICQNNEDFAVLKPVDPDGPENGPPFQFFLDNSASKNWNIEEKDGKTAILRQRQNLDYNYYSVPIQIKDRHGLVATHMLTVRVCDCSTPSECRMKDKSTRDVRPNVILGRWAILAMVLGSVLLLCILFTCFCVTAKRTVKKCFPEDIAQQNLIVSNTEGPGEEVTEANIRLPMQTSNICDTSMSVGTVGGQGIKTQQSFEMVKGGYTLDSNKGGGHQTLESVKGVGQGDTGRYAYTDWQSFTQPRLGEKVYLCGQDEEHKHCEDYVCSYNYEGKGSLAGSVGCCSDRQEEEGLEFLDHLEPKFRTLAKTCIKK
Turning to B1, in experiment [2], the binding result is “binds”.

B2: junction plakoglobin (JUP) (protein, UniProt P14923 1-745)
chain: MEVMNLMEQPIKVTEWQQTYTYDSGIHSGANTCVPSVSSKGIMEEDEACGRQYTLKKTTTYTQGVPPSQGDLEYQMSTTARAKRVREAMCPGVSGEDSSLLLATQVEGQATNLQRLAEPSQLLKSAIVHLINYQDDAELATRALPELTKLLNDEDPVVVTKAAMIVNQLSKKEASRRALMGSPQLVAAVVRTMQNTSDLDTARCTTSILHNLSHHREGLLAIFKSGGIPALVRMLSSPVESVLFYAITTLHNLLLYQEGAKMAVRLADGLQKMVPLLNKNNPKFLAITTDCLQLLAYGNQESKLIILANGGPQALVQIMRNYSYEKLLWTTSRVLKVLSVCPSNKPAIVEAGGMQALGKHLTSNSPRLVQNCLWTLRNLSDVATKQEGLESVLKILVNQLSVDDVNVLTCATGTLSNLTCNNSKNKTLVTQNSGVEALIHAILRAGDKDDITEPAVCALRHLTSRHPEAEMAQNSVRLNYGIPAIVKLLNQPNQWPLVKATIGLIRNLALCPANHAPLQEAAVIPRLVQLLVKAHQDAQRHVAAGTQQPYTDGVRMEEIVEGCTGALHILARDPMNRMEIFRLNTIPLFVQLLYSSVENIQRVAAGVLCELAQDKEAADAIDAEGASAPLMELLHSRNEGTATYAAAVLFRISEDKNPDYRKRVSVELTNSLFKHDPAAWEAAQSMIPINEPYGDDMDATYRPMYSSDVPLDPLEMHMDMDGDYPIDTYSDGLRPPYPTADHMLA
B2: in experiment [2], the binding result is listed as “binds”.

The record behind these values is paper PMC10807196.
